Article doi:10.1101/681833
Results are given in words; binding and its absence hold for the method and conditions named. In cells and extracts the contact can be indirect. Here binding means that the protein was enriched with, or labelled near, the bait; the list need not be complete.

Sequences of proteins named here, by UniProt entry; tags and fusion partners are left off.
UniProt P35573: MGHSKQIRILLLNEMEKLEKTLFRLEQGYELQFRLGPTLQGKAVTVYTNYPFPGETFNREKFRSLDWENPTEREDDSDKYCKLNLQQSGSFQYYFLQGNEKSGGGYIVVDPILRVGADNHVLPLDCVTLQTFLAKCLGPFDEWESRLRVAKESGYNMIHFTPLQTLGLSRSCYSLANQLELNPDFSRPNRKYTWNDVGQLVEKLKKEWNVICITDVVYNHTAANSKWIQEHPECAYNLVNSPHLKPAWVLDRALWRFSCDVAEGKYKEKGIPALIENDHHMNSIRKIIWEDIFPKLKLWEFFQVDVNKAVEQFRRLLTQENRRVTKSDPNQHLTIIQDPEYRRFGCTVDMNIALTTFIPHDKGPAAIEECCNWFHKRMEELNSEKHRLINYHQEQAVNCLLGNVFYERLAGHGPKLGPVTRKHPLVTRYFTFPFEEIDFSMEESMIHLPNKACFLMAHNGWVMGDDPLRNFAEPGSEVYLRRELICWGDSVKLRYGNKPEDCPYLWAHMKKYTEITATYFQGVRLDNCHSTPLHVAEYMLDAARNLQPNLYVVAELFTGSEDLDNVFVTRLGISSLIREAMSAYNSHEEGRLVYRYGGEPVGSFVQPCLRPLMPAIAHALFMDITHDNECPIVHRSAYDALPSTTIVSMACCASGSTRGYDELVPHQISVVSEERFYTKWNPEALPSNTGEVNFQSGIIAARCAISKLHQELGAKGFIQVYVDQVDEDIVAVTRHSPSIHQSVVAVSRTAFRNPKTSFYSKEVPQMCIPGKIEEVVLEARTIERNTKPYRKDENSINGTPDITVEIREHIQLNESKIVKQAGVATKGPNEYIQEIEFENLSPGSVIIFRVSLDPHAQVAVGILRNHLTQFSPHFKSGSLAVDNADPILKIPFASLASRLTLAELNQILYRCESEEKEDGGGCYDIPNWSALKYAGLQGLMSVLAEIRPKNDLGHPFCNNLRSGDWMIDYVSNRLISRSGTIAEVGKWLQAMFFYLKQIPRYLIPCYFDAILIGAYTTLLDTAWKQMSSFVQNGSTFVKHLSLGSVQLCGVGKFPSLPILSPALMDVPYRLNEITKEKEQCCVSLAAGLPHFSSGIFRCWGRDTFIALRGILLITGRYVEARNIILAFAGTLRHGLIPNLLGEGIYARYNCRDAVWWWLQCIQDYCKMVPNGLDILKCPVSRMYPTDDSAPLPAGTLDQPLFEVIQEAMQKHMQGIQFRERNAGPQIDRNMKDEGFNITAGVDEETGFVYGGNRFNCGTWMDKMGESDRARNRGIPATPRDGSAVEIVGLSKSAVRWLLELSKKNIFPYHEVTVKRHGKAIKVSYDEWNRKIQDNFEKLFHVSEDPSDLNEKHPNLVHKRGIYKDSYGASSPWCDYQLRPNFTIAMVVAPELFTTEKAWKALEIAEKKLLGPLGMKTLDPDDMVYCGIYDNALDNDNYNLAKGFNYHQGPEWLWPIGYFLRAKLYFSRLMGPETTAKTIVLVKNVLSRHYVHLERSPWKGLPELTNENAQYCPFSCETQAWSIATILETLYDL

T1: malin (purified recombinant) (UniProt Q6VVB1)
T1 sequence: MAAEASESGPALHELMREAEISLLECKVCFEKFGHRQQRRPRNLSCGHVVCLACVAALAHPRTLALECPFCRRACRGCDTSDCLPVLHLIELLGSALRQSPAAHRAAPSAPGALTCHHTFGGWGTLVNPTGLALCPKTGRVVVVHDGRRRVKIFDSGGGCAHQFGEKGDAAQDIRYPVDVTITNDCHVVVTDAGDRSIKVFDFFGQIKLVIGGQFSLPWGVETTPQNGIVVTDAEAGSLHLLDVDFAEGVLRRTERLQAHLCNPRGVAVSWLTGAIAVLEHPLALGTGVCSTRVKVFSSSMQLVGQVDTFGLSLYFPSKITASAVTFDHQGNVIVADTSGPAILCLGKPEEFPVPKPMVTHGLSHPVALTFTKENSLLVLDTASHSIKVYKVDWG


molecular target: T1, malin (purified recombinant); test: affinity purification with mass spectrometry

binding	Molecule
binds	glycogen debranching enzyme (from cell extract) (from UniProt P35573 1-1532)
binds	glycogen branching enzyme (from cell extract) (enzyme, UniProt Q04446 1-702) MAAPMTPAARPEDYEAALNAALADVPELARLLEIDPYLKPYAVDFQRRYKQFSQILKNIGENEGGIDKFSRGYESFGVHRCADGGLYCKEWAPGAEGVFLTGDFNGWNPFSYPYKKLDYGKWELYIPPKQNKSVLVPHGSKLKVVITSKSGEILYRISPWAKYVVREGDNVNYDWIHWDPEHSYEFKHSRPKKPRSLRIYESHVGISSHEGKVASYKHFTCNVLPRIKGLGYNCIQLMAIMEHAYYASFGYQITSFFAASSRYGTPEELQELVDTAHSMGIIVLLDVVHSHASKNSADGLNMFDGTDSCYFHSGPRGTHDLWDSRLFAYSSWEILRFLLSNIRWWLEEYRFDGFRFDGVTSMLYHHHGVGQGFSGDYSEYFGLQVDEDALTYLMLANHLVHTLCPDSITIAEDVSGMPALCSPISQGGGGFDYRLAMAIPDKWIQLLKEFKDEDWNMGDIVYTLTNRRYLEKCIAYAESHDQALVGDKSLAFWLMDAEMYTNMSVLTPFTPVIDRGIQLHKMIRLITHGLGGEGYLNFMGNEFGHPEWLDFPRKGNNESYHYARRQFHLTDDDLLRYKFLNNFDRDMNRLEERYGWLAAPQAYVSEKHEGNKIIAFERAGLLFIFNFHPSKSYTDYRVGTALPGKFKIVLDSDAAEYGGHQRLDHSTDFFSEAFEHNGRPYSLLVYIPSRVALILQNVDLPN
binds	laforin (from cell extract) (enzyme, UniProt O95278 1-331) MRFRFGVVVPPAVAGARPELLVVGSRPELGRWEPRGAVRLRPAGTAAGDGALALQEPGLWLGEVELAAEEAAQDGAEPGRVDTFWYKFLKREPGGELSWEGNGPHHDRCCTYNENNLVDGVYCLPIGHWIEATGHTNEMKHTTDFYFNIAGHQAMHYSRILPNIWLGSCPRQVEHVTIKLKHELGITAVMNFQTEWDIVQNSSGCNRYPEPMTPDTMIKLYREEGLAYIWMPTPDMSTEGRVQMLPQAVCLLHALLEKGHIVYVHCNAGVGRSTAAVCGWLQYVMGWNLRKVQYFLMAKRPAVYIDEEALARAQEDFFQKFGKVRSSVCSL
